Screening data

Source: PubChem BioAssay AID504749 (NCATS, 2011).

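A panel of P. falciparum strains inside erythrocytes is exposed to compounds for three days, then a DNA-binding dye reports the amount of parasite DNA.
Each compound was titrated across a series from about 0.000037 to 29 µM.
The number is the fitted AC50, the concentration giving a half-maximal change in signal; a lower value means higher potency, whether the curve shows a decrease or an increase.
Calls follow the curve class and fit quality: every row here is inconclusive, covering signal-raising curves and weak, poorly fitted, partial or highest-dose-only inhibition curves.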

Values are in µM.
Every entry below has the call inconclusive.
These entries are mostly ones the record files as inconclusive; other results of the assay are not listed here.
A potency from a partial, single-point or poor curve is only a rough figure.

| structure | tested on / at | potency (µM) | remark |
|---|---|---|---|
| `O=C(O)CCC/C=C\C[C@@H]1[C@@H](/C=C/[C@@H](O)COc2cccc(C(F)(F)F)c2)[C@H](O)C[C@@H]1O` | W2 | 19.01 | inhibitor, single point |
| `O=C(O)CCC/C=C\C[C@@H]1[C@@H](/C=C/[C@@H](O)COc2cccc(C(F)(F)F)c2)[C@H](O)C[C@@H]1O` | ICS | 10 | inhibitor, single point |
| `O=C(O)CCC/C=C\C[C@@H]1[C@@H](/C=C/[C@@H](O)COc2cccc(C(F)(F)F)c2)[C@H](O)C[C@@H]1O` | P94_40 | 10 | inhibitor, single point |
| `O=C(O)CCC/C=C\C[C@@H]1[C@@H](/C=C/[C@@H](O)COc2cccc(C(F)(F)F)c2)[C@H](O)C[C@@H]1O` | N140 | 7.943 | inhibitor, partial curve |
| `O=C(O)CCC/C=C\C[C@@H]1[C@@H](/C=C/[C@@H](O)COc2cccc(C(F)(F)F)c2)[C@H](O)C[C@@H]1O` | CP192 | 16.94 | inhibitor, single point |
| `O=C(O)CCC/C=C\C[C@@H]1[C@@H](/C=C/[C@@H](O)COc2cccc(C(F)(F)F)c2)[C@H](O)C[C@@H]1O` | 7G8 | 15.85 | inhibitor, single point |
| `O=C1N=C2SCCN2C(=O)C1Cc1ccc(Cl)cc1` (stereo not drawn) | CP260 | 15.85 | inhibitor, single point |
| `O=C1N=C2SCCN2C(=O)C1Cc1ccc(Cl)cc1` (stereo not drawn) | PC26 | 0.0011 | inhibitor, partial curve, poor fit |
| `CCCC(=O)OC[C@@H](OC(=O)CCC)[C@@H](OC(=O)CCC)[C@H](Cn1c2nc(=O)[nH]c(=O)c-2nc2cc(C)c(C)cc21)OC(=O)CCC` | ECU | 11.22 | inhibitor, partial curve |
| `CCCC(=O)OC[C@@H](OC(=O)CCC)[C@@H](OC(=O)CCC)[C@H](Cn1c2nc(=O)[nH]c(=O)c-2nc2cc(C)c(C)cc21)OC(=O)CCC` | AA1029 | 10 | inhibitor, single point |
| `CCCC(=O)OC[C@@H](OC(=O)CCC)[C@@H](OC(=O)CCC)[C@H](Cn1c2nc(=O)[nH]c(=O)c-2nc2cc(C)c(C)cc21)OC(=O)CCC` | CP185 | 17.78 | inhibitor, single point |
| `CCCC(=O)OC[C@@H](OC(=O)CCC)[C@@H](OC(=O)CCC)[C@H](Cn1c2nc(=O)[nH]c(=O)c-2nc2cc(C)c(C)cc21)OC(=O)CCC` | DIV17 | 19.01 | inhibitor, single point |
| `CCCC(=O)OC[C@@H](OC(=O)CCC)[C@@H](OC(=O)CCC)[C@H](Cn1c2nc(=O)[nH]c(=O)c-2nc2cc(C)c(C)cc21)OC(=O)CCC` | CP265 | 17.78 | inhibitor, single point |
| `CCCC(=O)OC[C@@H](OC(=O)CCC)[C@@H](OC(=O)CCC)[C@H](Cn1c2nc(=O)[nH]c(=O)c-2nc2cc(C)c(C)cc21)OC(=O)CCC` | W2 | 19.01 | inhibitor, single point |
| `CCCC(=O)OC[C@@H](OC(=O)CCC)[C@@H](OC(=O)CCC)[C@H](Cn1c2nc(=O)[nH]c(=O)c-2nc2cc(C)c(C)cc21)OC(=O)CCC` | P93_24 | 11.22 | inhibitor, partial curve |
| `CCCC(=O)OC[C@@H](OC(=O)CCC)[C@@H](OC(=O)CCC)[C@H](Cn1c2nc(=O)[nH]c(=O)c-2nc2cc(C)c(C)cc21)OC(=O)CCC` | ICS | 17.78 | inhibitor, single point |
| `CCCC(=O)OC[C@@H](OC(=O)CCC)[C@@H](OC(=O)CCC)[C@H](Cn1c2nc(=O)[nH]c(=O)c-2nc2cc(C)c(C)cc21)OC(=O)CCC` | 3D7 | 17.78 | inhibitor, single point |
| `CCCC(=O)OC[C@@H](OC(=O)CCC)[C@@H](OC(=O)CCC)[C@H](Cn1c2nc(=O)[nH]c(=O)c-2nc2cc(C)c(C)cc21)OC(=O)CCC` | GB4 | 16.94 | inhibitor, single point |
| `CCCC(=O)OC[C@@H](OC(=O)CCC)[C@@H](OC(=O)CCC)[C@H](Cn1c2nc(=O)[nH]c(=O)c-2nc2cc(C)c(C)cc21)OC(=O)CCC` | SC27B | 19.95 | inhibitor, single point |
| `CCCC(=O)OC[C@@H](OC(=O)CCC)[C@@H](OC(=O)CCC)[C@H](Cn1c2nc(=O)[nH]c(=O)c-2nc2cc(C)c(C)cc21)OC(=O)CCC` | 7G8 | 11.22 | inhibitor, single point |
| `CCCC(=O)OC[C@@H](OC(=O)CCC)[C@@H](OC(=O)CCC)[C@H](Cn1c2nc(=O)[nH]c(=O)c-2nc2cc(C)c(C)cc21)OC(=O)CCC` | CP191 | 10 | inhibitor, single point |
| `CCCC(=O)OC[C@@H](OC(=O)CCC)[C@@H](OC(=O)CCC)[C@H](Cn1c2nc(=O)[nH]c(=O)c-2nc2cc(C)c(C)cc21)OC(=O)CCC` | TAB109 | 12.59 | inhibitor, single point |
| `CCCC(=O)OC[C@@H](OC(=O)CCC)[C@@H](OC(=O)CCC)[C@H](Cn1c2nc(=O)[nH]c(=O)c-2nc2cc(C)c(C)cc21)OC(=O)CCC` | CP250 | 11.22 | inhibitor, single point |
| `CCCC(=O)OC[C@@H](OC(=O)CCC)[C@@H](OC(=O)CCC)[C@H](Cn1c2nc(=O)[nH]c(=O)c-2nc2cc(C)c(C)cc21)OC(=O)CCC` | TAB113 | 8.912 | inhibitor, single point |
| `CCCC(=O)OC[C@@H](OC(=O)CCC)[C@@H](OC(=O)CCC)[C@H](Cn1c2nc(=O)[nH]c(=O)c-2nc2cc(C)c(C)cc21)OC(=O)CCC` | CP260 | 11.22 | inhibitor, single point |
| `CCCC(=O)OC[C@@H](OC(=O)CCC)[C@@H](OC(=O)CCC)[C@H](Cn1c2nc(=O)[nH]c(=O)c-2nc2cc(C)c(C)cc21)OC(=O)CCC` | CP256 | 14.13 | inhibitor, single point |
| `CCCC(=O)OC[C@@H](OC(=O)CCC)[C@@H](OC(=O)CCC)[C@H](Cn1c2nc(=O)[nH]c(=O)c-2nc2cc(C)c(C)cc21)OC(=O)CCC` | DFO2036 | 11.22 | inhibitor, single point |
| `CCCC(=O)OC[C@@H](OC(=O)CCC)[C@@H](OC(=O)CCC)[C@H](Cn1c2nc(=O)[nH]c(=O)c-2nc2cc(C)c(C)cc21)OC(=O)CCC` | TAB165 | 17.78 | inhibitor, single point |
| `CCCC(=O)OC[C@@H](OC(=O)CCC)[C@@H](OC(=O)CCC)[C@H](Cn1c2nc(=O)[nH]c(=O)c-2nc2cc(C)c(C)cc21)OC(=O)CCC` | HB3 | 11.22 | inhibitor, single point |
| `CCCC(=O)OC[C@@H](OC(=O)CCC)[C@@H](OC(=O)CCC)[C@H](Cn1c2nc(=O)[nH]c(=O)c-2nc2cc(C)c(C)cc21)OC(=O)CCC` | ATS95 | 17.78 | inhibitor, single point |
| `CCCC(=O)OC[C@@H](OC(=O)CCC)[C@@H](OC(=O)CCC)[C@H](Cn1c2nc(=O)[nH]c(=O)c-2nc2cc(C)c(C)cc21)OC(=O)CCC` | parasite line B | 10 | inhibitor, single point |
| `CCCC(=O)OC[C@@H](OC(=O)CCC)[C@@H](OC(=O)CCC)[C@H](Cn1c2nc(=O)[nH]c(=O)c-2nc2cc(C)c(C)cc21)OC(=O)CCC` | CP252 | 17.78 | inhibitor, single point |
| `CCCC(=O)OC[C@@H](OC(=O)CCC)[C@@H](OC(=O)CCC)[C@H](Cn1c2nc(=O)[nH]c(=O)c-2nc2cc(C)c(C)cc21)OC(=O)CCC` | CP286 | 10 | inhibitor, single point |
| `CCCC(=O)OC[C@@H](OC(=O)CCC)[C@@H](OC(=O)CCC)[C@H](Cn1c2nc(=O)[nH]c(=O)c-2nc2cc(C)c(C)cc21)OC(=O)CCC` | CP217 | 11.22 | inhibitor, single point |

Repeated from the top, 2 entries:

For O=C(O)CCC/C=C\C[C@@H]1[C@@H](/C=C/[C@@H](O)COc2cccc(C(F)(F)F)c2)[C@H](O)C[C@@H]1O [W2] the result was potency 19.01 µM (inhibitor, single point).
For O=C(O)CCC/C=C\C[C@@H]1[C@@H](/C=C/[C@@H](O)COc2cccc(C(F)(F)F)c2)[C@H](O)C[C@@H]1O [ICS] the result was potency 10 µM (inhibitor, single point).